Literature values, collected in patent EP1479382A1, “Oral pharmaceutical compositions containing taxanes and methods for treatment employing the same” (IVAX Research, Inc., priority 1999, dated 2000).

With `CC(=O)O[C@H]1C(=O)[C@@]2(C)[C@H]([C@H](OC(=O)c3ccccc3)[C@]3(O)C[C@H](OC(=O)[C@H](O)[C@@H](NC(=O)c4ccccc4)c4ccccc4)C(C)=C1C3(C)C)[C@]1(OC(C)=O)CO[C@@H]1C[C@@H]2O` [paclitaxel] as the molecule, how does the solubility in water read?
The solubility in water was “only slightly soluble in water”.
